# Values quoted from earlier work in patent US12678418B2, “Compositions and methods for the treatment of threatened respiratory failure caused by coronavirus infection and disease” (ENCYT TECHNOLOGIES, INC., priority 2020, dated 2026).
# For at least one compound, name, drawing or mass did not settle the structure.
# Tested on: four human sialidases
# Details: even at 1 mM; cited from earlier work
compound,measurement,value
CCC(CC)O[C@@H]1C=C(C(=O)O)C[C@H](N)[C@H]1NC(C)=O [oseltamivir carboxylate],inhibition of the activities of the four human sialidases,scarcely inhibited
